Results taken from patent US20250289885A1.
These are yes or no findings as the source states them, for the method shown. Some binding calls cover weakened binding; strength is not graded here.

Amino acid sequences for entries named in this document (tags omitted). Residues count along the entry.
UniProt P46531, residues 19-1762: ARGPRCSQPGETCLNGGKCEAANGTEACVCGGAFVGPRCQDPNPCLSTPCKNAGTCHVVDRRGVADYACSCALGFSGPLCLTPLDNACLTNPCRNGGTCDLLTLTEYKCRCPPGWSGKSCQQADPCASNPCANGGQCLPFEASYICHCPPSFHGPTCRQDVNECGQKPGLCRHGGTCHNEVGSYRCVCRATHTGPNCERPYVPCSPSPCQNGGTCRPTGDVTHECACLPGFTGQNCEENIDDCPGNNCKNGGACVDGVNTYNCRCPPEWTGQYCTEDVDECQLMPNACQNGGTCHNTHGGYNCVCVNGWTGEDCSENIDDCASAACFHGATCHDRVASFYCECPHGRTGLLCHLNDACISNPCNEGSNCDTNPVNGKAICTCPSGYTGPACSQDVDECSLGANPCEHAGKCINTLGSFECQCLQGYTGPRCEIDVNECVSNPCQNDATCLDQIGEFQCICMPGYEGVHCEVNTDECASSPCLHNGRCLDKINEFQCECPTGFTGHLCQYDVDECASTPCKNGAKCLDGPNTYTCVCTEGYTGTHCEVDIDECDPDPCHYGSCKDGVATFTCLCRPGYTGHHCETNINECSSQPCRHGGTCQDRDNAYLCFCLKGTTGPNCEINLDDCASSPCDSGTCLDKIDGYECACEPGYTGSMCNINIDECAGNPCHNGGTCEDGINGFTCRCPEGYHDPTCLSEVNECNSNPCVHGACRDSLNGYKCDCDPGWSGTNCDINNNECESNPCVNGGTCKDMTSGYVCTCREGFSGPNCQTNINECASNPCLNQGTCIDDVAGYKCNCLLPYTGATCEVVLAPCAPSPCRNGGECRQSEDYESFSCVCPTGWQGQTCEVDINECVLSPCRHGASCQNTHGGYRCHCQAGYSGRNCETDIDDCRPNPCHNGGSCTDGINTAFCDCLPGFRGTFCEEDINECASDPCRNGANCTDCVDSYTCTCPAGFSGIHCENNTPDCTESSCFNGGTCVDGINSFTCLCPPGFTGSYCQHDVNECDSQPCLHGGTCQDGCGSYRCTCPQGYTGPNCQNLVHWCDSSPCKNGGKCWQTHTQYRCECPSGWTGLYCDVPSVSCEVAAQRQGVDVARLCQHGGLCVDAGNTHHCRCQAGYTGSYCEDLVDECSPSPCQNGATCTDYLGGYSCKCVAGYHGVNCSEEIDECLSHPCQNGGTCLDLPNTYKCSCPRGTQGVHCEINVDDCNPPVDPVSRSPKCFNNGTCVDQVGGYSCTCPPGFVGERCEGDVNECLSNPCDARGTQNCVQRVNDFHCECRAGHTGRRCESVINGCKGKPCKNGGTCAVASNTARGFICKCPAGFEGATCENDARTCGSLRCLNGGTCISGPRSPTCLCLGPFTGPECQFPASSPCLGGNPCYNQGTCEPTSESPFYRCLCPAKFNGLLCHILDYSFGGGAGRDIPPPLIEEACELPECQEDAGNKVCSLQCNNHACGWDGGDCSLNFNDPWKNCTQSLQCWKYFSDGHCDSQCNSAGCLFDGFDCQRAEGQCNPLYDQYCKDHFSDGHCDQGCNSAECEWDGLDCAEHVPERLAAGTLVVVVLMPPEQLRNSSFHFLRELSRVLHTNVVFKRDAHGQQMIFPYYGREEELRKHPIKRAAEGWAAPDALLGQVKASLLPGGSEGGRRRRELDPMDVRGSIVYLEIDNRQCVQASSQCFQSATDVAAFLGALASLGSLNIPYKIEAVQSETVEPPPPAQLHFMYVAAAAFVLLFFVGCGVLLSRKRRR

Experiments:
[1] = target: human Notch1-derived receptor overexpressed on CHO-K1 cells (human) (UniProt P46531); test: fluorescence imaging of JFX650-labelled probody on CHO-K1 cells overexpressing a human Notch1-derived receptor
[2] = target: human Notch1-derived receptor overexpressed on CHO-K1 cells (human) (UniProt P46531); test: fluorescence microscopy of JFX650-labelled probody on CHO-K1 cells overexpressing a human Notch1-derived receptor

binding [1]: binds | binding [2]: binds
B1: Brontictuzumab-based probody with the V1667D mutant human Notch1 NRR, TEV protease-cleaved (scFv, not shown: large carriers; small tags and cut ends)
scFv: QVQLVQSGAEVKKPGASVKISCKVSGYTLRGYWIEWVRQAPGKGLEWIGQILPGTGRTNYNEKFKGRVTMTADTSTDTAYMELSSLRSEDTAVYYCARFDGNYGYYAMDYWGQGTTVTVSSGGSSRSSSSGGGGSGGGGQAVVTQEPSLTVSPGGTVTLTCRSSTGAVTTSNYANWFQQKPGQAPRTLIGGTNNRAPGVPARFSGSLLGGKAALTLSGAQPEDEAEYYCALWYSNHWVFGGGTKLTVL
modifications: HaloTag labelled with JFX650 dye
